According to PubChem BioAssay AID493027 (The Scripps Research Institute Molecular Screening Center, 2011):
Several values for one entry are separate records, joined by “and”; a condition that tells them apart may be missing. Identical values can stand only once. Hit rate of the full screen: of about 2,000 compounds, about 45 (2%) were called active.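 How the source made its calls: active means inhibition above the screen-wide mean inhibition plus 3 SD (cut at about 44% in these data); inactive means the rest.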 The list shows a part of the results.

The chains behind the UniProt entries cited, without tags or fusion partners. Where a name states a change or a piece, a line headed by the entry shows the natural chain unless it says otherwise.
UniProt O60240: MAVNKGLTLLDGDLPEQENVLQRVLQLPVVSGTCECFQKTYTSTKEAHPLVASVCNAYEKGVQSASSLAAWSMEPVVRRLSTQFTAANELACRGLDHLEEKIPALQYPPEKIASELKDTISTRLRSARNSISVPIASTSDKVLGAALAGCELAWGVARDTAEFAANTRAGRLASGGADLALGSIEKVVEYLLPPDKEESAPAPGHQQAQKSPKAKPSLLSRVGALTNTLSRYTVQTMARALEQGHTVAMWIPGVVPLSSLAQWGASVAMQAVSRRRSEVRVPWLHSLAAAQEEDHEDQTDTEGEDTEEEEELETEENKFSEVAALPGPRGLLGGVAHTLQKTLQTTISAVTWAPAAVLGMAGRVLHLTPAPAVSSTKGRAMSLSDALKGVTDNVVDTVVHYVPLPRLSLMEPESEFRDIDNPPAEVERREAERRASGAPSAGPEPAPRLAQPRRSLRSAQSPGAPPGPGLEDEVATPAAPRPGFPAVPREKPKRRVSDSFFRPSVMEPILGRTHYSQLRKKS
UniProt Q8WTS1: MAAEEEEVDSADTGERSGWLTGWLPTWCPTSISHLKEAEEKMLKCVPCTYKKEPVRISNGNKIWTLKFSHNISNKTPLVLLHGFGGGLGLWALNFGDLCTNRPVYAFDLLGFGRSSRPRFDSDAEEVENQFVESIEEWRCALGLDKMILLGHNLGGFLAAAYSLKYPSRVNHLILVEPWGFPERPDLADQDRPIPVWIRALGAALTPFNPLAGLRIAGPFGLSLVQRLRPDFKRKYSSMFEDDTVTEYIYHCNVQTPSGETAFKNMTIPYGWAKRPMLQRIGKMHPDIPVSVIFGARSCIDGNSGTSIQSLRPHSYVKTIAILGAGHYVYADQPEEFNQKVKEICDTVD

These molecules were tested against Perilipin-1 (Homo sapiens) + 1-acylglycerol-3-phosphate O-acyltransferase ABHD5 (Homo sapiens) (UniProt O60240+Q8WTS1) (assay: blockers of ABHD5 binding to perilipin-1 – cell lysate, split luciferase complementation, luminescence, NIH validation set, pilot screen (AID 493027;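 further: 0% = DMSO wells with the 100% control not disclosed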)). Settings: split G. princeps luciferase complementation, 4 h; at 7.9 µM, stronger effect = higher value.
With `O=C(O)C1Cc2ccccc2CN1S(=O)(=O)c1ccccc1` (stereo not drawn) the inhibition was inactive: -0.86%. `CC(=O)OCC(=O)[C@H]1CC[C@H]2[C@@H]3CC=C4C[C@@H](O)CC[C@]4(C)[C@H]3CC[C@]12C` was tested, and the inhibition was inactive: -3.35%. `CCOC(=O)C(=O)N1CCN(c2ccccc2OC)CC1` was tested, and the inhibition was inactive: -5.23%. With `CC(C)(Oc1ccc(CCNC(=O)c2ccc(Cl)cc2)cc1)C(=O)O` the inhibition was inactive: -1.93%. `OCCN1CCN(CCCN2c3ccccc3Sc3ccc(C(F)(F)F)cc32)CC1` was tested, and the inhibition was inactive: 10.8%. For `O=C(NC1CCCCC1)N1CCc2[nH]c3ccccc3c2C1`, the inhibition was inactive: -1.39%. With `O=C(Nc1ccc(C(=O)NC2CCCCC2)cc1)c1cccnc1` the inhibition was inactive: -8%. For `c1ccc(CC2=NCCN2)cc1`, the inhibition was inactive: 3.29%. For `COc1ccc(C=NCC2COc3ccccc3O2)cc1OC` (stereo not drawn), the inhibition was inactive: 0.36%. For `N#Cc1cc2c([nH]c1=O)CCCC2`, the inhibition was inactive: -6.8%. With `COc1ccc(N2CCN(C(=S)NCc3ccccc3)CC2)cc1` the inhibition was inactive: 5.66%. In the case of `Cn1c(=O)[nH]c(=O)c2c1ncn2CCN1CCOCC1`, the inhibition was inactive: -2.02%. `O=C(NCCO)c1ccc(Cl)c(Cl)c1` was tested, and the inhibition was inactive: -11.6%. In the case of `COc1ccccc1C1(CC(=O)N2CCCCC2)CCOC(C(C)C)C1` (stereo not drawn), the inhibition was inactive: -7.12%. In the case of `O=C(CN1CCN(Cc2ccccc2)CC1)N1CCCc2c1c(=O)oc1ccc(O)cc21`, the inhibition was inactive: 14.9%. With `O=Cc1ccc(OC(=O)c2cccnc2)cc1` the inhibition was inactive: -5.64%. For `Cc1ccc(N(CC2=NCCN2)c2cccc(O)c2)cc1`, the inhibition was inactive: -4.49% and inactive: -5.95% and inactive: -7.49%. For `O=C1OC(c2ccc(O)cc2)(c2ccc(O)cc2)c2ccccc21`, the inhibition was inactive: 22.7%. For `COCC1CCCN(Cc2cn[nH]c2-c2cc3ccccc3o2)C1` (stereo not drawn), the inhibition was inactive: -8.66%. With `CCOc1cc(C=O)ccc1OCCSc1ccc(C)cc1` the inhibition was inactive: -8.51%. With `CCOC(=O)c1cc2cc3ccccc3cc2[nH]1` the inhibition was inactive: 0.41%. `CC(C)(CO)CNC(=O)CC1C(=O)NCCN1CC(c1ccccc1)c1ccccc1` (stereo not drawn) was tested, and the inhibition was inactive: 1.59%. `COc1ccc(CNC(=O)C2CCN(C(=O)[C@@H](CC(C)C)NC(=O)OC(C)(C)C)CC2)cc1` was tested, and the inhibition was inactive: -8.53%. For `COc1ccc(CN(CCC(c2ccc(F)cc2)C2CCOC(C)(C)C2)C(=O)c2ccco2)cc1` (stereo not drawn), the inhibition was inactive: 23.5%. For `CCOc1ccc(C(=O)C(C)=O)c(OCC)c1`, the inhibition was inactive: 0.4%. In the case of `COc1ccc(CCCC(=O)O)c(C)c1`, the inhibition was inactive: -5.11%. In the case of `Clc1ccc(CCNc2ncnc3nc[nH]c23)cc1`, the inhibition was inactive: -1.68%. With `CC(C)C(=O)Nc1cccnc1` the inhibition was inactive: 1.55%. With `C/C=C/Cn1c(SC)nc2c1c(=O)[nH]c(=O)n2C` the inhibition was inactive: -18.6%. In the case of `c1ccc2c(c1)CCCC2C1=NCCN1` (stereo not drawn), the inhibition was inactive: 2.18%. `CCCCN1C[C@H](O)[C@@H](O)[C@H](O)[C@H]1CO` was tested, and the inhibition was inactive: -9.78%. For `COC(=O)c1ccccc1NC(=O)NCc1ccccc1`, the inhibition was inactive: -7.32%. For `O=C(NCCc1ccccc1)C1CCN(C2CCN(Cc3ccco3)CC2)CC1`, the inhibition was inactive: 6.8%. In the case of `CCC(C)NCCOc1ccc(C(C)(C)c2ccccc2)cc1` (stereo not drawn), the inhibition was inactive: -11.5%. In the case of `Nc1ccc(S(=O)(=O)NC(=O)c2ccccc2)cc1`, the inhibition was inactive: -6.88%. For `C[N+](C)(C)CCOP(=O)(O)OP(=O)([O-])OC[C@H]1O[C@@H](n2ccc(N)nc2=O)[C@H](O)[C@@H]1O`, the inhibition was inactive: 4.34%. `C[C@]12CC[C@@H]3c4ccc(O)cc4[C@@H](O)C[C@H]3[C@@H]1CC[C@@H]2O` was tested, and the inhibition was inactive: 1.76%. In the case of `COc1ccc(/C=C2\CCn3c2nc2cc(C(=O)O)ccc2c3=O)cc1OC`, the inhibition was inactive: -6.3%. `O=C(NCCN1CCN(c2ccccc2)CC1)c1cccc(Br)c1` was tested, and the inhibition was inactive: -3.13%. With `CCOc1ccc(CCn2c(-c3ccco3)nc3ccccc3c2=O)cc1OCC` the inhibition was inactive: 3.19%. For `CC(C)CN1CCN(Cc2ccc3ncccc3c2)CC1CCO` (stereo not drawn), the inhibition was inactive: -14.4%. With `Cc1cccc(NC(=O)c2cc3ccccc3o2)c1` the inhibition was inactive: 5.84%. With `c1ccc(CN(CC2=NCCN2)c2ccccc2)cc1` the inhibition was inactive: -5.29% and inactive: -4.12%. For `O=c1oc2c(CN3CCN(CCO)CC3)c(O)ccc2cc1-c1ccccn1`, the inhibition was inactive: 0.68%. With `CCOC(=O)c1cnc2ccc(C(=O)OC)cc2c1Nc1ccc2c(c1)OCCO2` the inhibition was inactive: 5.34%. In the case of `CC(=O)Nc1ccccc1O`, the inhibition was inactive: 2.03%. For `O=c1cc(Cn2ccnc2)c2cc3c(cc2o1)CCC3`, the inhibition was inactive: 3.38%. With `S=C(c1ccc2c(c1)OCO2)N1CCCCC1` the inhibition was inactive: -0.57%. In the case of `COc1cc2c3c(c1)C(C)CC(C)(C)N3C(=O)C2=O` (stereo not drawn), the inhibition was inactive: 6.69%. In the case of `COc1ccc(C(=O)NCc2cccnc2)cc1`, the inhibition was inactive: -5.65%. For `COc1ccc(O)c(N)c1`, the inhibition was inactive: 21.5%. With `Oc1[nH]c2ccccc2c1N=Nc1ccccc1` the inhibition was inactive: -0.17%. For `C=CCn1c(N2CCCCCC2)nc2c1c(=O)n(C)c(=O)n2C`, the inhibition was inactive: -0.7%. With `COc1ccc(CN(C)CCc2ccccn2)cc1OC` the inhibition was inactive: -9.24%. `S=C(NCc1ccccc1)NCc1cccc(CNC(=S)NCc2ccccc2)c1` was tested, and the inhibition was inactive: 4.65%. For `CC(=O)OCC(=O)[C@@]1(OC(C)=O)[C@@H](C)C[C@H]2[C@@H]3C[C@H](F)C4=CC(=O)C=C[C@]4(C)[C@@]3(F)[C@@H](O)C[C@@]21C`, the inhibition was inactive: -5.29%. With `CC(N=C(NC#N)Nc1ccncc1)C(C)(C)C` (stereo not drawn) the inhibition was inactive: -8.82%. In the case of `CC(C)C[C@H]1C(=O)N2CCC[C@H]2[C@]2(O)O[C@](NC(=O)[C@@H]3C=C4c5cccc6[nH]c(Br)c(c56)CC4N(C)C3)(C(C)C)C(=O)N12` (stereo partly drawn), the inhibition was inactive: 13.6%. `O=C(NO)c1ccccc1O` was tested, and the inhibition was inactive: -9.16%. `COc1cc2nc(-c3ccccc3)nc(N3CCCC3)c2cc1OC` was tested, and the inhibition was inactive: 5.54%. In the case of `O=c1[nH]c(Cc2ccccc2)nc2c1oc1ccccc12`, the inhibition was inactive: -3.99%. For `C#C[C@]1(O)CC[C@H]2[C@@H]3CCC4=CC(=O)CC[C@@H]4[C@H]3CC[C@@]21CC`, the inhibition was inactive: -5.32%. For `CC(=O)OCC(=O)[C@H]1CC[C@H]2[C@@H]3CCC4=CC(=O)CC[C@]4(C)[C@H]3CC[C@]12C`, the inhibition was inactive: -2.69%. With `CCOC(=O)Cn1c(C)cc(=O)c2ccccc21` the inhibition was inactive: 3.65%. With `CCc1cc2c(=O)c(-c3ccc(F)cc3)c(C)oc2cc1OCC(=O)O` the inhibition was inactive: 1.69%. `O=C(O)CP(=O)(O)O` was tested, and the inhibition was inactive: -2.55%. For `CNc1nc(N(C)C)nc(N(C)C)n1`, the inhibition was inactive: -4.5%. With `COc1ccc(C(=O)/C=C/c2cc(C(=O)O)cc3c2OCOC3)c(O)c1` the inhibition was active: 67.3%. For `Cc1ccc(S(=O)(=O)Oc2ccccc2/C=N/N=C(N)N)cc1`, the inhibition was inactive: 0.02%. `COc1ccccc1C(=O)c1cc2ccc(O)cc2oc1=O` was tested, and the inhibition was inactive: 4.61%. `O=C(c1ccc(O)cc1)c1ccc(O)cc1O` was tested, and the inhibition was inactive: 2.64%. With `COc1ccc2[nH]c(=O)c(CNC3CCCCC3)cc2c1` the inhibition was inactive: -4.19%. With `COc1cc2c(cc1OC)C(Cc1ccc(O)cc1)N(C)CC2` (stereo not drawn) the inhibition was inactive: 6.17%. `CN(C)C(=O)Oc1ccc[n+](C)c1` was tested, and the inhibition was inactive: -7.41%. In the case of `CC(=O)CCc1c(C)c2cccc(C)c2[nH]c1=O`, the inhibition was inactive: -7.07%. With `COc1ccccc1OCC(O)COC(N)=O` (stereo not drawn) the inhibition was inactive: 1.99%. With `COC(=O)c1ccccc1NC(=O)c1ccc(COc2ccc3c(c2)CCC3)cc1` the inhibition was inactive: -13%. With `Cc1c2c(nc3c(C)cccc13)OC(C)C2` (stereo not drawn) the inhibition was inactive: 0.69%. With `CN1CCCC(OC(=O)c2ccc3c(c2)OCCO3)C1` (stereo not drawn) the inhibition was inactive: -4.03%. `O=c1nc2cccc3c2=c(/c1=C(\O)c1ccccc1)c1ccccc1c3=O` was tested, and the inhibition was inactive: 9.17%. With `CC(C)Cc1nc(NCCN2CCOCC2)c(C#N)c2c1COC(C)(C)C2` the inhibition was inactive: -9.04%. In the case of `Fc1ccc(-c2cc(-c3ccccc3)nc(-n3cccn3)n2)cc1`, the inhibition was inactive: 1.17%. For `O=C1NCC2=C1C(c1ccccc1)Nc1ccccc1N2` (stereo not drawn), the inhibition was inactive: 0.93%. In the case of `Cc1ccc2c(c1)C(O)(C1COC(C)(C)CC1=O)C(=O)N2C` (stereo not drawn), the inhibition was inactive: -9.79%. For `c1ccc(CNc2ncnc3nc[nH]c23)cc1`, the inhibition was inactive: -7.6%. In the case of `O=C1NC(=O)C(c2ccccc2)(c2ccccc2)N1`, the inhibition was inactive: -10.3% and inactive: 0.44%. With `Cc1ccccc1-c1nn(-c2ccc(F)cc2F)cc1CNCCN(C)C` the inhibition was inactive: -6.83%. For `COc1ccc(C2C3=C(OC(C)=O)c4ccccc4C3=Nc3c2c(=O)n(C)c(=O)n3C)cc1` (stereo not drawn), the inhibition was inactive: -2.98%. `COC1CCN(Cc2cn(Cc3ccccc3)nc2-c2cc3ccccc3o2)CC1` was tested, and the inhibition was inactive: -8.86%. With `Cc1cccc(-c2ncc(CN3CCN(CC(C)C)C(CCO)C3)cn2)c1` (stereo not drawn) the inhibition was inactive: -1.43%. In the case of `COc1ccc(Cc2noc(CN(C)CC3(N4CCOCC4)CCCCC3)n2)cc1OC`, the inhibition was inactive: -1.95%. For `CN(C)CCCN1c2ccccc2Sc2ccc(Cl)cc21`, the inhibition was inactive: 7.85% and inactive: 4.58%. In the case of `COc1ccc(C(=O)Nc2cccc3cccnc23)cc1OC`, the inhibition was inactive: 5.1%. For `CC(=O)Oc1ccc2occ(/C=N/c3cc(=O)[nH]c(=S)[nH]3)c(=O)c2c1`, the inhibition was inactive: -1.72%. `O=c1ccc2ccccc2o1` was tested, and the inhibition was inactive: -11.4%. With `CC1(C)CC(CNCCC(c2ccc(F)cc2)c2ccco2)CCO1` (stereo not drawn) the inhibition was inactive: -10.1%. `O=C(O)C[C@@H](O)C(=O)O` was tested, and the inhibition was inactive: -3.71%. With `O=C1C(=O)N2C(=C1C(=O)N1CCCCCC1)c1ccccc1CC21CCCC1` the inhibition was inactive: -6.88%.
